At least one compound was matched to its structure with a doubt left.
System: EP2^−/− microglia
Assay: Microglial phagocytosis of aggregated fluorescein-labeled Aβ1-42 (flow cytometry), EP2−/− microglia
Type: cell-based, mouse
Conditions: PKA activator, 50 μM
Method: Microglial Aβ phagocytosis. At DIV 14, microglia were seeded in 6-well plates at 1.5×10^5 cells per well in microglial culture medium. After 2hr seeding, medium was changed with 1.5 ml of serum-free DMEM medium containing penicillin and streptomycin. To make aggregated Aβ for phagocytosis, Aβ was dissolved in 2 mM NaOH and was diluted into 10 μM of stock solution (100×) in PBS followed by incubation at 37° C. for 2 hr and monitored by turbidity. For studying signaling pathways involved in Aβ phagocytosis, some microglia were pre-treated for 1 hr with AH6809 (20 μM), butaprost ([…]), SC51089 (10 μM), PTPE2 (20 μM), forskolin (50 μM), or BIM (10 μM) prior to treatment with aggregated fluorescein labeled AP1-42 (100 nM). After 24hr incubation of Aβ, cells were washed with PBS followed by trypsinization (0.05%) and centrifugation. Cells were then re-suspended in PBS and subjected to flow cytometry. Flow cytometer (FACScan, BD Biosciences, San Jose, Calif.) set at un-gated 10,000 cells per measure was used to analyze Aβ uptake as an indication of Aβ phagocytosis. Data were analyzed using Summit Mo-Flo software (Cytomation, Fort Collins, Colo.). Phagocytosis was presented as percent of mean FITC intensity in wt controls treated with Aβ. Some cells were plated onto chambered slides at 1×10^4 for assessing cellular uptake of Aβ using fluorescent microscope (Nikon TE200).

## C=C[C@@]1(C)CC(=O)[C@]2(O)[C@@]3(C)[C@@H](O)CCC(C)(C)[C@@H]3[C@H](O)[C@H](OC(C)=O)[C@@]2(C)O1 [forskolin, Forskolin]
  Effect on enhanced Aβ1-42 phagocytosis: did not reverse the enhanced Aβ1-42 phagocytosis

Source: US20070232556A1, “Methods and compositions for the treatment of neurological diseases and disorders” (priority 2006, published 2007)
